PubChem BioAssay AID493246 | Drosophila RNAi Screening Center, 2011
Assay: 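Genome-wide search for dsRNAs that reduce cell number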 (primary screen). Cells: Drosophila Kc and S2R+ cells. Reagents: long dsRNA against Drosophila genes. Detection: 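Raw, unnormalised count of remaining cells in each well; per-plate z-scores of cell number underlie the calls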. Scale: Kc cell number and S2R+ cell number: higher = more cells remaining. Rule for the call: 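Active when the per-plate z-score of cell number is 3 or more in the direction of fewer cells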.
In all, the deposit lists about 21,000 reagents; shown is a random part of those that have a named target and a result. Of all reagents, 429 (2%) got an active call. 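Values are raw and not normalised between plates; calls rest on per-plate z-scores that were not deposited.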 Names joined by + are all predicted targets of the reagent. Not given: the amount of reagent, the time to read-out.

The first 6 entries as a preview:
| gene | dsRNA | Kc cell number, rep 1 | Kc cell number, rep 2 | S2R+ cell number, rep 1 | S2R+ cell number, rep 2 | Outcome |
| --- | --- | --- | --- | --- | --- | --- |
| CG10413 | DRSC02052 | 1.21e6 | 1.45e6 | 1.41e6 | 1.21e6 | inactive |
| CG42502 + CG10570 | DRSC02071 | 1.54e6 | 1.61e6 | 1.26e6 | 1.19e6 | inactive |
| Obp44a | DRSC06838 | 1.46e6 | 1.58e6 | 1.22e6 | 1.32e6 | inactive |
| MSBP | DRSC20146 | 6.13e5 | – | 9.54e5 | – | inactive |
| H2.0 | DRSC03340 | 1.48e6 | 1.53e6 | 1.04e6 | 1.12e6 | inactive |
| sisA | DRSC20374 | 1.53e6 | 1.49e6 | 1.17e6 | 1.26e6 | inactive |

Results, repeating the preview:
| gene | dsRNA | Kc cell number, rep 1 | Kc cell number, rep 2 | S2R+ cell number, rep 1 | S2R+ cell number, rep 2 | Outcome |
| --- | --- | --- | --- | --- | --- | --- |
| CG10413 | DRSC02052 | 1.21e6 | 1.45e6 | 1.41e6 | 1.21e6 | inactive |
| CG42502 + CG10570 | DRSC02071 | 1.54e6 | 1.61e6 | 1.26e6 | 1.19e6 | inactive |
| Obp44a | DRSC06838 | 1.46e6 | 1.58e6 | 1.22e6 | 1.32e6 | inactive |
| MSBP | DRSC20146 | 6.13e5 | – | 9.54e5 | – | inactive |
| H2.0 | DRSC03340 | 1.48e6 | 1.53e6 | 1.04e6 | 1.12e6 | inactive |
| sisA | DRSC20374 | 1.53e6 | 1.49e6 | 1.17e6 | 1.26e6 | inactive |
| mtTFB2 | DRSC15519 | 1.75e6 | 1.68e6 | 1.40e6 | 1.51e6 | inactive |
| Oda | DRSC07626 | 1.53e6 | 1.50e6 | 1.10e6 | 1.23e6 | inactive |
| Fkbp59 | DRSC03323 | 1.67e6 | 1.71e6 | 1.24e6 | 1.44e6 | inactive |
| CG6724 | DRSC02983 | 1.51e6 | 1.59e6 | 1.07e6 | 1.23e6 | inactive |
| ex | DRSC00817 | 1.19e6 | 1.26e6 | 7.64e5 | 8.10e5 | inactive |
| mdlc | DRSC15690 | 1.83e6 | 1.85e6 | 1.38e6 | 1.44e6 | inactive |
| Amun | DRSC19847 | 1.38e6 | 1.34e6 | 1.00e6 | 1.07e6 | inactive |
| Bicra | DRSC14417 | 1.37e6 | 1.43e6 | 1.04e6 | 1.08e6 | inactive |
| Nacalpha | DRSC07477 | 1.33e6 | 1.42e6 | 1.00e6 | 1.11e6 | inactive |
| insb | DRSC06995 | 1.46e6 | 1.53e6 | 1.13e6 | 1.23e6 | inactive |
| msn | DRSC07990 | 1.40e6 | 1.38e6 | 9.39e5 | 1.08e6 | inactive |
| msn | DRSC08498 | 1.40e6 | 1.37e6 | 1.04e6 | 1.20e6 | inactive |
| kn | DRSC05505 | 1.38e6 | 1.45e6 | 9.85e5 | 1.14e6 | inactive |
| kn | DRSC05507 | 1.43e6 | 1.43e6 | 9.99e5 | 1.21e6 | inactive |
| kn | DRSC06196 | 1.41e6 | 1.46e6 | 9.80e5 | 1.15e6 | inactive |
| kn | DRSC07637 | 1.42e6 | 1.48e6 | 1.21e6 | 1.36e6 | inactive |
| CG3918 | DRSC18331 | 2.40e5 | – | 5.03e5 | – | active |
| CG34347 | DRSC14047 | 1.24e6 | 1.45e6 | 1.06e6 | 1.09e6 | inactive |
| CG34347 | DRSC14305 | 1.53e6 | 1.65e6 | 1.10e6 | 1.12e6 | inactive |
| CG34347 | DRSC15104 | 1.36e6 | 1.49e6 | 9.77e5 | 1.10e6 | inactive |
| CG9377 | DRSC03217 | 1.33e6 | 1.43e6 | 1.25e6 | 1.37e6 | inactive |
| CG13039 | DRSC09920 | 1.54e6 | 1.60e6 | 1.39e6 | 1.56e6 | inactive |
| CG5280 | DRSC10498 | 1.36e6 | 1.29e6 | 1.26e6 | 1.28e6 | inactive |
| Ppt1 | DRSC17806 | 1.57e6 | 1.57e6 | 1.12e6 | 1.21e6 | inactive |
| Rrp46 | DRSC15537 | 1.51e6 | 1.48e6 | 1.22e6 | 1.29e6 | inactive |
| CG15873 | DRSC04277 | 1.44e6 | 1.54e6 | 1.23e6 | 1.33e6 | inactive |
| Slip1 | DRSC17146 | 4.63e5 | – | 8.06e5 | – | inactive |
| beat-IIIb | DRSC02435 | 1.53e6 | 1.59e6 | 1.26e6 | 1.38e6 | inactive |
| Pal2 | DRSC04507 | 1.51e6 | 1.56e6 | 1.27e6 | 1.36e6 | inactive |
| ranshi | DRSC16564 | 1.41e6 | 1.44e6 | 1.31e6 | 1.38e6 | inactive |
| CG4658 | DRSC02768 | 1.76e6 | 1.83e6 | 1.41e6 | 1.58e6 | inactive |
| TwdlF | DRSC12225 | 1.58e6 | 1.59e6 | 1.24e6 | 1.33e6 | inactive |
| Dg | DRSC06718 | 1.59e6 | 1.59e6 | 1.19e6 | 1.38e6 | inactive |
| Orc6 | DRSC07497 | 1.74e6 | 1.76e6 | 1.44e6 | 1.93e6 | inactive |
| Mpcp2 | DRSC11226 | 1.42e6 | 1.46e6 | 1.11e6 | 1.28e6 | inactive |
| CG17721 | DRSC15253 | 1.66e6 | 1.61e6 | 1.37e6 | 1.49e6 | inactive |
| Stip1 | DRSC00756 | 1.37e6 | 1.35e6 | 6.75e5 | 6.76e5 | inactive |
| Nt5b | DRSC19976 | 1.72e6 | 1.69e6 | 1.13e6 | 1.28e6 | inactive |
| Nt5b | DRSC19977 | 1.61e6 | 1.62e6 | 1.09e6 | 1.27e6 | inactive |
| Nt5b | DRSC19978 | 1.71e6 | 1.75e6 | 1.16e6 | 1.25e6 | inactive |
| Lis-1 | DRSC07459 | 1.49e6 | 1.60e6 | 1.02e6 | 1.12e6 | inactive |
| DIP-delta | DRSC10214 | 1.30e6 | 1.30e6 | 1.18e6 | 1.17e6 | inactive |
| DIP-delta | DRSC10450 | 1.25e6 | 1.38e6 | 1.22e6 | 1.22e6 | inactive |
| Ent3 | DRSC09822 | 1.24e6 | 1.45e6 | 1.24e6 | 8.80e5 | inactive |
| jb | DRSC20531 | 1.42e6 | 1.48e6 | 9.84e5 | 1.09e6 | inactive |
| scramb1 | DRSC09724 | 1.47e6 | 1.49e6 | 1.42e6 | 1.51e6 | inactive |
| scramb1 | DRSC10667 | 1.26e6 | 1.26e6 | 1.38e6 | 1.43e6 | inactive |
| scramb1 | DRSC10668 | 1.39e6 | 1.53e6 | 1.42e6 | 1.50e6 | inactive |
| Lip1 | DRSC03364 | 1.56e6 | 1.56e6 | 1.19e6 | 1.32e6 | inactive |
| CG14034 | DRSC02359 | 1.57e6 | 1.53e6 | 1.20e6 | 1.38e6 | inactive |
| CG33673 | DRSC00084 | 1.64e6 | 1.66e6 | 1.12e6 | 1.28e6 | inactive |
| CG17612 | DRSC00505 | 1.34e6 | 1.34e6 | 1.04e6 | 1.10e6 | inactive |
| CG13698 | DRSC10047 | 1.59e6 | 1.59e6 | 1.23e6 | 1.38e6 | inactive |
